Five substances from paper doi:10.1101/641977 can be followed below.

Chains of the proteins cited; added tags and fusions are not shown. Residues count along the entry.
UniProt Q93009, whole entry: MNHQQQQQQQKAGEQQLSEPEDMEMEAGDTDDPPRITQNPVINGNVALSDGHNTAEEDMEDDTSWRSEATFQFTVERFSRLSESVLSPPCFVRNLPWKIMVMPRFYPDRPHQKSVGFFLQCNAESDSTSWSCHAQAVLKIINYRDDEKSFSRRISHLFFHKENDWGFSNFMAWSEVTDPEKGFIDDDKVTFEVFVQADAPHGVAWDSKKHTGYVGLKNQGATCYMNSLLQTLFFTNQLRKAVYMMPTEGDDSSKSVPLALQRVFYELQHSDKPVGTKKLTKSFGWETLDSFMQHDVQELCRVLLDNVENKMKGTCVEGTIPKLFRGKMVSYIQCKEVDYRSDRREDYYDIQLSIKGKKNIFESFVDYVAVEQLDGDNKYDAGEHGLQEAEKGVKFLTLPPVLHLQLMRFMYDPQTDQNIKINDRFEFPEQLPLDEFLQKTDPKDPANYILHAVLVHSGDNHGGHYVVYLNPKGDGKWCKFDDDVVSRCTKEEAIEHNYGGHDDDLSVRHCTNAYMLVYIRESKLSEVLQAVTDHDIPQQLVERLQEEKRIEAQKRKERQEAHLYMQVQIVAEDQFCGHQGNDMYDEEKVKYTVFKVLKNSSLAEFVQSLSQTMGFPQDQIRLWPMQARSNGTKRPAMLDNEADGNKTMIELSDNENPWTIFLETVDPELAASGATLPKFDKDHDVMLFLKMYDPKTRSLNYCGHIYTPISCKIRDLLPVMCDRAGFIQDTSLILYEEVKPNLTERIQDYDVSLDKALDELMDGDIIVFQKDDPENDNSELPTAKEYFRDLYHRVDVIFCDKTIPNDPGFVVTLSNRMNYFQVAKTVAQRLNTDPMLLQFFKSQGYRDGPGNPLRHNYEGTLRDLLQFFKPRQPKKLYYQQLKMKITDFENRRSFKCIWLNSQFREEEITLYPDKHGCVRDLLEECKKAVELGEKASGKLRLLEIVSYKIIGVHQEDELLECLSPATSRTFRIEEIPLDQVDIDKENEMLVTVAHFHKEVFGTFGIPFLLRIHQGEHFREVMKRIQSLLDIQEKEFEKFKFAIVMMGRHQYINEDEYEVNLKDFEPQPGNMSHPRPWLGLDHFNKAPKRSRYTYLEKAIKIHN
UniProt Q15910, whole entry: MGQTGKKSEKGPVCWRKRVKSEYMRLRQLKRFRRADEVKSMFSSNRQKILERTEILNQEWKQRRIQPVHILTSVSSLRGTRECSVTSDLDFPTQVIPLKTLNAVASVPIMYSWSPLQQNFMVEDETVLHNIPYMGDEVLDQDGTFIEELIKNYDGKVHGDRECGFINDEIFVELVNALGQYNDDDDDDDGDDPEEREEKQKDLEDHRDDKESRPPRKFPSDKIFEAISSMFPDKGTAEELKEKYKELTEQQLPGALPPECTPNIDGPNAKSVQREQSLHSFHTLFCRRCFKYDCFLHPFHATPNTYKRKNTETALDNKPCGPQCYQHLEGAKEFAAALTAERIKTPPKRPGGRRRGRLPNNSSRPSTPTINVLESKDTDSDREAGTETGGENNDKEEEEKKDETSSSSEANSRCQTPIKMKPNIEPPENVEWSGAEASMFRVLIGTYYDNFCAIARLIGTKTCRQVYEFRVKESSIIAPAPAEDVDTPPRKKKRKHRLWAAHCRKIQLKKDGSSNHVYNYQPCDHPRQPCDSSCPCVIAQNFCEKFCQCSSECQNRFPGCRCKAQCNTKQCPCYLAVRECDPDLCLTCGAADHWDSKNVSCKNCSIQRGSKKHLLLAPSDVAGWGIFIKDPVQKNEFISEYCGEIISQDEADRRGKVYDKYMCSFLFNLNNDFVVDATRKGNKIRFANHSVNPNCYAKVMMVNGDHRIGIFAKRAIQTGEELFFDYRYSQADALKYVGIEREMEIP
UniProt Q15910, 1-173: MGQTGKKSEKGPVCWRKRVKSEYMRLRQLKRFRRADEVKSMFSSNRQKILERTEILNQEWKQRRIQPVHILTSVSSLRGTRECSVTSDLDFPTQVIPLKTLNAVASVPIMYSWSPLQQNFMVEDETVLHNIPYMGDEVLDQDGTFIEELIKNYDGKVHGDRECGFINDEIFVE
UniProt O75530, whole entry: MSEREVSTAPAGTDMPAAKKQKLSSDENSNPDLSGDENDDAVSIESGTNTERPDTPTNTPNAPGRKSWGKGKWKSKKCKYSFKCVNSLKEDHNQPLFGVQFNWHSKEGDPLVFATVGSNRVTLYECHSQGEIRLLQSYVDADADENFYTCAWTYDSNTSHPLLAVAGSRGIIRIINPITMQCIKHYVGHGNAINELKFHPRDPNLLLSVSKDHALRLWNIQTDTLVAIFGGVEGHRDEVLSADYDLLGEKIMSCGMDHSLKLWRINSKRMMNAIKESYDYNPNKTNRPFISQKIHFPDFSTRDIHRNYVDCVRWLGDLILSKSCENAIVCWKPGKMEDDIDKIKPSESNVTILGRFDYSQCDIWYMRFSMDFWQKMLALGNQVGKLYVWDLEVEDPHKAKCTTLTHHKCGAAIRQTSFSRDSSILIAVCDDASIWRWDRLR
UniProt Q15022, whole entry: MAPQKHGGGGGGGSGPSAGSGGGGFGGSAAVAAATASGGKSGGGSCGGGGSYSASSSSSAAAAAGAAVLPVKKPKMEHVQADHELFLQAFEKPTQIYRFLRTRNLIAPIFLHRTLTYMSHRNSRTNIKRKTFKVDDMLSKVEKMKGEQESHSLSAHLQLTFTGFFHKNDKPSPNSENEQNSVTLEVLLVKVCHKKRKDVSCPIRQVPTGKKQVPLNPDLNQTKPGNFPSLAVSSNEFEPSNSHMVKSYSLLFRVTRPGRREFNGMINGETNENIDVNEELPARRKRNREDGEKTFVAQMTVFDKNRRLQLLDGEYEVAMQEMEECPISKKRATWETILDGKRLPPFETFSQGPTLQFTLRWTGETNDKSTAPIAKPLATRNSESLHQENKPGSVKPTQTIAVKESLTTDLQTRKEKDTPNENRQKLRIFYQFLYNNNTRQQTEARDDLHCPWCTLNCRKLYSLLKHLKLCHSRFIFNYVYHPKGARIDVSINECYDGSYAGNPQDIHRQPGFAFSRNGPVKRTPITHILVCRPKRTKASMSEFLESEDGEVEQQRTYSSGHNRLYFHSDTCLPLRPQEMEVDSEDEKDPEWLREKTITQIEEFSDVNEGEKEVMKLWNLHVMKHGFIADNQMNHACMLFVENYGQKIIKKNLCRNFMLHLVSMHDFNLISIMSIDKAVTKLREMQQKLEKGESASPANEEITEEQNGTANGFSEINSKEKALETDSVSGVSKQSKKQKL

Experiment [1] addresses His-tagged full-length USP7/WT purified from Sf9 cells (UniProt Q93009). Put plainly: pull-down.
Experiment [2] has as its target GST-fused EZH2 N1 domain (aa 1-173) (UniProt Q15910). The experiment can be described thus: pull-down.
In experiment [3] the target is enhancer of zeste homolog 2 (EZH2), endogenous (human (endogenous in A375 and HEK293T)) (UniProt Q15910). Put plainly: SEC. For orientation: Size exclusion chromatography separates by hydrodynamic size, large species first.
For experiment [4] the target is unchanged. Put plainly: co-IP.

These are yes or no findings as the source states them, for the method shown. For part of these data: In cells and extracts the contact can be indirect. Some results given as binding are weak or reduced against the parent protein; the word gives no strength.

In the case of “recombinant EZH2, in vitro-transcribed/translated (from UniProt Q15910-2 1-751)”, in experiment [1], the binding result is listed as “binds”. Take “in vitro-transcribed/translated FLAG-USP7 (from UniProt Q93009 1-1102) (enzyme)”: the binding entry in experiment [2] was “binds”. In the case of “recombinant EED, in vitro-transcribed/translated (from UniProt O75530 1-441)”, the binding result in experiment [1] is “no binding”. Take “ubiquitin-specific protease 7 (USP7), endogenous (from UniProt Q93009 1-1102) (enzyme)”: the binding entry in experiment [3] and in experiment [4] was “binds” throughout. On to “recombinant SUZ12, in vitro-transcribed/translated (from UniProt Q15022 1-739)”, for which the binding entry in experiment [1] is “no binding”.
